Publication PMC11324294, “Peripheral gating of mechanosensation by glial diazepam binding inhibitor” (The Journal of Clinical Investigation, 2024)

Tested on: T1, GABAA receptors of presumed mechanosensitive rat DRG neurons
T1 construct: gene Gabra1
Conditions: read-out: EC50-control; without DBI; presumed mechanosensitive neurons (capsaicin-negative); -60 mV, room temperature; agonist

EC50: 67.6 ± 14.7 µM
SMILES: NCCCC(=O)O [GABA]
